Assay [1] deals with T1, Flag-tagged truncated DAZL, c.808C>T (p.Arg270*) (human) (UniProt Q92904).
T1 sequence: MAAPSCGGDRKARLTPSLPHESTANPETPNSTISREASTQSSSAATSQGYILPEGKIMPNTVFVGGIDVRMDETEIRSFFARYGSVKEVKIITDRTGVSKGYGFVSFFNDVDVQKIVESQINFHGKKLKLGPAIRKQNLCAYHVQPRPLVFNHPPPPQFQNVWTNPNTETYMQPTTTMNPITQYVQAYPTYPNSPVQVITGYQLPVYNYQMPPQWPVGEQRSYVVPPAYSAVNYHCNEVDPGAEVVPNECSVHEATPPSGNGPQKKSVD
The assay is described as follows: co-IP; antibodies against PABP or Flag-tagged DAZL; HEK293FT cells overexpressing WT or truncated DAZL; PABP band density normalised to Flag density (ImageJ, n = 3).

The target in assay [2] is T2, Flag-tagged wild-type DAZL (Deleted in Azoospermia-like) (human) (UniProt Q92904).
T2 sequence: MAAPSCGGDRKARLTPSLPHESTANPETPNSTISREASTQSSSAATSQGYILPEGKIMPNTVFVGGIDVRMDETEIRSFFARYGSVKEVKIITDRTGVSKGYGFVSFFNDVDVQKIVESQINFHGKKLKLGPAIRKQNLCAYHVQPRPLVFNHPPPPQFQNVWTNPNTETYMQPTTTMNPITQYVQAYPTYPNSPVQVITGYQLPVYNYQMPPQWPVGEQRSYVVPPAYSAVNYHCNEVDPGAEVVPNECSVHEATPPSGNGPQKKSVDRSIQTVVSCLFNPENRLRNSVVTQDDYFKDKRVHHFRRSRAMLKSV
The description is as above.

No constants are given. Whether binding was seen depends on the method and setting. Binding seen in cells or lysates may run through a third protein. A result given as binding can be weak or reduced; the word gives no strength. Where a sequence is shown, tags or fusion partners need not be part of it.

With “poly(A)-binding protein (PABP) (human (endogenous in HEK293FT))”, the binding result in assay [1] and in assay [2] was “binds” in each case.

Values taken from article PMC11749114.
